Data as given in publication doi:10.1101/2022.07.20.500724.
These are yes or no findings as the source states them, for the method shown. In cells and extracts the contact can be indirect.

Chains of the proteins cited; added tags and fusions are not shown.
UniProt Q13485: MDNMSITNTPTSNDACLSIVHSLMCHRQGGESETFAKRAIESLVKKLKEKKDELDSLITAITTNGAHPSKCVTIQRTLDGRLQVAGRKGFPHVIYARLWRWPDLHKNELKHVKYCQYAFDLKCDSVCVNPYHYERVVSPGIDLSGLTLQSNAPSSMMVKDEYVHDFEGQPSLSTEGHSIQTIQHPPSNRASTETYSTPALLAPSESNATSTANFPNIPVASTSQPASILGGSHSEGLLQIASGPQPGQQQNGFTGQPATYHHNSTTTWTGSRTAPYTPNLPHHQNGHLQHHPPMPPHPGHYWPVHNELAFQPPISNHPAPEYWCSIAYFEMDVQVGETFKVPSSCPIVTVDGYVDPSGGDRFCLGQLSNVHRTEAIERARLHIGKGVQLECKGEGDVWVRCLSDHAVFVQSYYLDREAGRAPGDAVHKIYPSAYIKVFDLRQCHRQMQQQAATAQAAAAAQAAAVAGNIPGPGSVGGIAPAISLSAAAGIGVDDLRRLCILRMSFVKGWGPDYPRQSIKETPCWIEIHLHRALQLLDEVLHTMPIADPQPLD
UniProt P46379: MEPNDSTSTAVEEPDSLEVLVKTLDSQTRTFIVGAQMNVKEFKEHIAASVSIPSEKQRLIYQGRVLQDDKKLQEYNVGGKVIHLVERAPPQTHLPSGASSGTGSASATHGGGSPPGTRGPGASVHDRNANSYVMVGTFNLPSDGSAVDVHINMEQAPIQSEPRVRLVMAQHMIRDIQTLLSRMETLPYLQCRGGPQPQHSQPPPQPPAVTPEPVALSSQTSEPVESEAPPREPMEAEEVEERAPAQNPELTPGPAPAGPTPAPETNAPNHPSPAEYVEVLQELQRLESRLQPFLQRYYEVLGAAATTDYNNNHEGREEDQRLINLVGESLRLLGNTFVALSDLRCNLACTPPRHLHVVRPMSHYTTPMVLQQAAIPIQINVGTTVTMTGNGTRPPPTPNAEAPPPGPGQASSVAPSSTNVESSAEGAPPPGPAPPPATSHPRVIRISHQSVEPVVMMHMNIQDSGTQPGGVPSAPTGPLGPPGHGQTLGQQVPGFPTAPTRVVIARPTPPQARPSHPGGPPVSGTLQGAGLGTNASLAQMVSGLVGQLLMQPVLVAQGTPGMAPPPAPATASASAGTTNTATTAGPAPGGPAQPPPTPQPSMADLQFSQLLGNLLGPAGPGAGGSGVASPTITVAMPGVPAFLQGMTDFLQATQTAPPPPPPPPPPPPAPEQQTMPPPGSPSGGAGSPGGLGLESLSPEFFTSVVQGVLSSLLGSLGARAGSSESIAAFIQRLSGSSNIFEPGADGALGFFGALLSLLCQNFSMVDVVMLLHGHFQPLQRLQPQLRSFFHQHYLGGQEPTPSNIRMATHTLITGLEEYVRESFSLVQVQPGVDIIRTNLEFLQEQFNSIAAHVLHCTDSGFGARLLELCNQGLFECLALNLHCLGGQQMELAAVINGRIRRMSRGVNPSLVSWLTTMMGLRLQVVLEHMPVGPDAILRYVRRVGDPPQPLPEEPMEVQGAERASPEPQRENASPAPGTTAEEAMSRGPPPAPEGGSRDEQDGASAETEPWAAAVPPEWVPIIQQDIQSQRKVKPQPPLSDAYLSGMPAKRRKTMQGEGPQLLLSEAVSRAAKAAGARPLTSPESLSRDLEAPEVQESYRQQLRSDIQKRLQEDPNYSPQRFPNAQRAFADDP

Biological target: SMAD4 wild-type protein (human (endogenous in HEK293T)) (UniProt Q13485)
Assay: co-IP

BAG6 (from UniProt P46379 1-1132)
binding: no binding
